Experimental data as given in article PMC12884795.
No constants are given. Whether binding was seen depends on the method and setting. Binding seen in cells or lysates may run through a third protein. A result given as binding can be weak or reduced; the word gives no strength. For some of these results: Tags and fused reporters may be left off the sequences shown.

Columns and labels:
KLF4 amino acids 201-479 = experiment: co-IP; HEK293T cells; IP lysis buffer (20 mM Tris-HCl pH 7.4, 150 mM NaCl, 1 mM EDTA, 1% NP-40), protein A/G agarose beads with specified antibodies at 4 °C overnight, western blot; whole proteins and truncations
[1] = target: KLF4 expressed in HEK293T cells (co-IP); experiment: as above
[2] = target: KLF4 of the GST pull-down (HEK293T); experiment: pull-down; GST pull-down; bait and prey from HEK293T lysates (50 mM Na2HPO4 pH 8.0, 300 mM NaCl, 1% Triton X-100); bait held on GST beads and washed, prey supernatant (pre-cleared on GST beads) added at 4 °C overnight; western blot; only the target purified

B1: TRIM56 expressed in HEK293T cells (co-IP) (protein, UniProt Q9BRZ2 1-755)
chain: MVSHGSSPSLLEALSSDFLACKICLEQLRAPKTLPCLHTYCQDCLAQLADGGRVRCPECRETVPVPPEGVASFKTNFFVNGLLDLVKARACGDLRAGKPACALCPLVGGTSTGGPATARCLDCADDLCQACADGHRCTRQTHTHRVVDLVGYRAGWYDEEARERQAAQCPQHPGEALRFLCQPCSQLLCRECRLDPHLDHPCLPLAEAVRARRPGLEGLLAGVDNNLVELEAARRVEKEALARLREQAARVGTQVEEAAEGVLRALLAQKQEVLGQLRAHVEAAEEAARERLAELEGREQVARAAAAFARRVLSLGREAEILSLEGAIAQRLRQLQGCPWAPGPAPCLLPQLELHPGLLDKNCHLLRLSFEEQQPQKDGGKDGAGTQGGEESQSRREDEPKTERQGGVQPQAGDGAQTPKEEKAQTTREEGAQTLEEDRAQTPHEDGGPQPHRGGRPNKKKKFKGRLKSISREPSPALGPNLDGSGLLPRPIFYCSFPTRMPGDKRSPRITGLCPFGPREILVADEQNRALKRFSLNGDYKGTVPVPEGCSPCSVAALQSAVAFSASARLYLINPNGEVQWRRALSLSQASHAVAALPSGDRVAVSVAGHVEVYNMEGSLATRFIPGGKASRGLRALVFLTTSPQGHFVGSDWQQNSVVICDGLGQVVGEYKGPGLHGCQPGSVSVDKKGYIFLTLREVNKVVILDPKGSLLGDFLTAYHGLEKPRVTTMVDGRYLVVSLSNGTIHIFRVRSPDS
**Q.** Which results are given for B1?
**A.** binding (KLF4 amino acids 201-479): binds; binding [1]: binds

B2: TRIM56 of the GST pull-down (HEK293T) (protein, UniProt Q9BRZ2 1-755)
chain: MVSHGSSPSLLEALSSDFLACKICLEQLRAPKTLPCLHTYCQDCLAQLADGGRVRCPECRETVPVPPEGVASFKTNFFVNGLLDLVKARACGDLRAGKPACALCPLVGGTSTGGPATARCLDCADDLCQACADGHRCTRQTHTHRVVDLVGYRAGWYDEEARERQAAQCPQHPGEALRFLCQPCSQLLCRECRLDPHLDHPCLPLAEAVRARRPGLEGLLAGVDNNLVELEAARRVEKEALARLREQAARVGTQVEEAAEGVLRALLAQKQEVLGQLRAHVEAAEEAARERLAELEGREQVARAAAAFARRVLSLGREAEILSLEGAIAQRLRQLQGCPWAPGPAPCLLPQLELHPGLLDKNCHLLRLSFEEQQPQKDGGKDGAGTQGGEESQSRREDEPKTERQGGVQPQAGDGAQTPKEEKAQTTREEGAQTLEEDRAQTPHEDGGPQPHRGGRPNKKKKFKGRLKSISREPSPALGPNLDGSGLLPRPIFYCSFPTRMPGDKRSPRITGLCPFGPREILVADEQNRALKRFSLNGDYKGTVPVPEGCSPCSVAALQSAVAFSASARLYLINPNGEVQWRRALSLSQASHAVAALPSGDRVAVSVAGHVEVYNMEGSLATRFIPGGKASRGLRALVFLTTSPQGHFVGSDWQQNSVVICDGLGQVVGEYKGPGLHGCQPGSVSVDKKGYIFLTLREVNKVVILDPKGSLLGDFLTAYHGLEKPRVTTMVDGRYLVVSLSNGTIHIFRVRSPDS
**Q.** With B2 as the binder, how does the binding [2] read?
**A.** binds

B3: TRIM56 amino acids 206-520 (domain or fragment, UniProt Q9BRZ2 206-520)
chain: AEAVRARRPGLEGLLAGVDNNLVELEAARRVEKEALARLREQAARVGTQVEEAAEGVLRALLAQKQEVLGQLRAHVEAAEEAARERLAELEGREQVARAAAAFARRVLSLGREAEILSLEGAIAQRLRQLQGCPWAPGPAPCLLPQLELHPGLLDKNCHLLRLSFEEQQPQKDGGKDGAGTQGGEESQSRREDEPKTERQGGVQPQAGDGAQTPKEEKAQTTREEGAQTLEEDRAQTPHEDGGPQPHRGGRPNKKKKFKGRLKSISREPSPALGPNLDGSGLLPRPIFYCSFPTRMPGDKRSPRITGLCPFGPRE
**Q.** Which binding [1] does the source give for B3 here?
**A.** binds
